Laboratory results as given in PubChem BioAssay AID2685 (National Center for Advancing Translational Sciences (NCATS), 2010).
This is one part of the list. Further columns of the screen follow, without active or inactive calls. Most of these compounds were active or inconclusive in the main read-out, so they are no random draw. Words in brackets tell the shape of the fitted curve; partial curves, single points and poor fits give uncertain potencies.

Assay: qHTS Assay for Lipid Storage Modulators in Drosophila S3 Cells;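 on cell number change: cells counted by Cell Tracker Red CMTPX staining in the red channel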
Settings: BODIPY lipid droplet fluorescence, 18-24 h; for cell number change: measured here: cell count max response, cells fed with added oleic acid
In short: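 Drosophila S3 cells loaded with oleic acid (400 uM, as added) and compounds at several concentrations; lipid droplets imaged by 488-nm laser-scanning cytometry, 500–530 nm intensity and object ratio to cell channel. Percent activity normalized to 20 uM Triacsin C.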

[1] = measured here: cell number channel AC50, cells fed with added oleic acid
[2] = measured here: lipid fluorescence (Fed channel) AC50, cells fed with added oleic acid

Row | SMILES | cell number change | AC50 [1] | AC50 [2]
1 | O=C(CCNS(=O)(=O)c1ccc(Br)cc1)NCc1ccc(F)cc1 | -33% | 13 µM [falling, partial curve, poor fit] | 
2 | CCN(CC)S(=O)(=O)c1ccc(Cl)c(NC(=O)c2ccc(C#N)cc2)c1 |  | 0.731 µM [rising, single point] | 
3 | CCOC(=O)c1ccc(COC(=O)c2cc3ccccc3oc2=O)o1 |  | 0.146 µM [falling, full curve, poor fit] | 
4 | COc1cc(NC(=O)c2ccccc2F)ccc1NC(=O)c1cc2ccccc2o1 | -29.6% | 1.84 µM [falling, full curve, poor fit] | 1.03 µM [falling, full curve, poor fit]
5 | CCCNC(=S)N1CCN(Cc2ccc3c(c2)OCO3)CC1 | -7.32% |  | 0.13 µM [falling, full curve, poor fit]
6 | CCN(CC)S(=O)(=O)c1csc(C(=O)Nc2ccccn2)c1 | 245% | 18.4 µM [rising, single point] | 
7 | O=C(CCNC(=O)c1ccc(Cl)cc1)Nc1c(F)c(F)cc(F)c1F | -13.6% | 1.64 µM [falling, partial curve] | 0.116 µM [falling, full curve]
8 | CC(=O)NCC(=O)NC1CC(C)(C)Cc2c1cnn2-c1ccccc1 (centres undefined) | 3.94% |  | 
9 | CC(C)c1c(C(=O)N/N=C/c2ccccc2C(=O)O)nnn1-c1nonc1N | 9.06% |  | 
10 | Cc1cc(C)nc(CCNC(=O)c2cc(COc3ccc(F)cc3Cl)on2)n1 | 14.1% |  | 5.8 µM [rising, partial curve, poor fit]
11 | COc1cc(-c2cc3nc(C)c(C)c(=O)n3[nH]2)cc(OC)c1OC | -0.32% |  | 3.66 µM [rising, partial curve]
12 | Cc1nc(SCc2ccccc2)nc2c1CCC2 |  | 6.51 µM [falling, single point] | 
13 | Cc1ccc(C)c(NC(=O)COC(=O)CNC(=O)c2ccccc2Cl)c1 | -49.2% |  | 
14 | COc1ccccc1CC(=O)NNC(=O)c1ccco1 | 9.52% |  | 
15 | CN(C)C(CNC(=O)c1cccc(S(=O)(=O)N2CC3(C)CC2CC(C)(C)C3)c1)c1ccco1 (centres undefined) | -10.2% |  | 0.092 µM [rising, full curve, poor fit]
16 | CCSc1nnc(NC(=O)c2ccccc2)s1 | 34.3% |  | 0.92 µM [rising, full curve, poor fit]
17 | O=C(c1cnc2sccn2c1=O)N1CCN(c2ccccc2Cl)CC1 | 4.7% | 0.146 µM [falling, full curve, poor fit] | 
18 | Cc1cc(C)c(S(C)(=O)=O)c(N(C)N)n1 | -30.5% |  | 0.00461 µM [falling, full curve, poor fit]
19 | CCOC(=O)c1c(C)[nH]c(C)c1S(=O)(=O)NCc1ccccc1C | 19.1% |  | 
20 | COc1cccc(N2CCN(C3CC(=O)N(c4ccc(C)c(Cl)c4)C3=O)CC2)c1 (centres undefined) | -8.95% |  | 
21 | Cc1cc(C)c(C#N)c(SCc2cn3ccccc3n2)n1 | 1.99% |  | 23.1 µM [rising, partial curve]
22 | COc1ccc(C(=O)N2CCN(S(=O)(=O)N3CCOCC3)CC2)cc1OC | 5.4% | 6.51 µM [falling, single point] | 6.51 µM [falling, single point]

Of the compounds above, these contain two or more sulfur atoms.
Row | SMILES | cell number change | AC50 [1] | AC50 [2]
6 | CCN(CC)S(=O)(=O)c1csc(C(=O)Nc2ccccn2)c1 | 245% | 18.4 µM [rising, single point] | 
16 | CCSc1nnc(NC(=O)c2ccccc2)s1 | 34.3% |  | 0.92 µM [rising, full curve, poor fit]

Next part

Row | SMILES | cell number change | AC50 [1] | AC50 [2]
23 | Cn1c(SCC(=O)Nc2cccc(F)c2)nnc1-c1cc2ccccc2o1 | -16.8% | 0.0116 µM [falling, full curve, poor fit] | 1.84 µM [falling, partial curve]
24 | COc1ccc(-c2cc(=O)oc3cc(OC(C)C(=O)NCCCn4ccnc4)ccc23)cc1 (centres undefined) | 19.1% | 3.26 µM [rising, single point] | 
25 | COc1cccc(C(=O)Nc2cccc(NC(=O)c3cccs3)c2)c1 | -28.7% |  | 6.51 µM [rising, single point]
26 | COc1ccccc1NC(=O)CCCc1c[nH]c2ccccc12 | 6.4% |  | 20.6 µM [rising, single point]
27 | O=C(Nc1sc2c(c1C(=O)O)CCC2)c1cccs1 | 32.7% | 4.61 µM [rising, single point] | 
28 | O=C(NN=C1CCCC1)c1cc(O)cc(O)c1 | 9.38% |  | 
29 | Cc1ccc(NC(=O)c2ccc(C(C)(C)C)cc2)cc1[N+](=O)[O-] | 6.99% |  | 3.66 µM [rising, partial curve]
30 | CCN1C(=O)/C(=C2/Sc3ccccc3N2CC)SC1=S | -7.92% |  | 8.2 µM [falling, partial curve]
31 | CC1CN(C(=O)c2ccc(OC3CCN(Cc4ccccn4)CC3)cc2)CCN1C (centres undefined) | -15.3% |  | 
32 | COc1ccc(/C=N\n2nnc3ccccc32)cc1 | -7.03% |  | 1.84 µM [rising, partial curve]
33 | COc1ccccc1NC(=O)CSc1nc(O)cc(=O)n1C | 10.3% |  | 
34 | O=C(O)c1cn(-c2ccc(F)cc2)c2cc(Cl)c(F)cc2c1=O | 18% |  | 8.2 µM [rising, partial curve]
35 | O=C(NCCc1ccc(C(F)(F)F)cc1)c1ccc(Cl)nc1 | -11.1% |  | 0.58 µM [falling, single point]
36 | COc1ccc(C(=O)Nc2ccc(N3CCC(C)CC3)cc2)cc1Br | 18% |  | 
37 | COC(=O)CNC(c1ccccc1Cl)c1cc(Br)ccc1NC(=O)CCN1CCOCC1 (centres undefined) | 71.3% | 0.411 µM [rising, full curve, poor fit] | 
38 | CC1CC(C)CN(C(=O)/C(=C\c2ccccc2)c2ccccc2)C1 (centres undefined) | -28.1% |  | 
39 | O=C(NCc1ccccc1)C(c1cccnc1)N(C(=O)c1csnn1)c1ccccc1 (centres undefined) | 9.24% |  | 20.6 µM [rising, single point]
40 | c1coc(CNc2ncnc3ccccc23)c1 | -19.6% | 0.13 µM [falling, full curve, poor fit] | 5.8 µM [falling, partial curve]
41 | Cc1ccc(S(=O)(=O)/N=C(\N)c2ccc(F)cc2)cc1 | 113% | 29.1 µM [rising, single point] | 
42 | CCOC(=O)CN1C(=O)C(O)=C(C(C)=O)C1c1ccc(F)cc1 (centres undefined) | -12.8% |  | 0.092 µM [falling, full curve, poor fit]
43 | Oc1c(C(c2ccccn2)N2CCOCC2)ccc2cccnc12 (centres undefined) | -23.3% |  | 16.4 µM [falling, single point]
44 | CCN(CC)S(=O)(=O)c1ccc(N/N=C(\C)c2ccncc2)c([N+](=O)[O-])c1 | -29.5% |  | 

Row | SMILES | cell number change | AC50 [1] | AC50 [2]
45 | O=C(Oc1ccc(Br)cc1C(=S)N1CCOCC1)c1ccccc1 | -19% |  | 29.1 µM [falling, partial curve]
46 | CCCCc1ccc(N/C(N)=N/c2nc(C)cc(C)n2)cc1 | -61.6% | 29.1 µM [falling, single point] | 11.6 µM [falling, partial curve]
47 | C/C(N)=C(/C#N)C(=O)COC(=O)c1ccccc1O | 50% | 5.8 µM [rising, full curve] | 
48 | CC(c1nnc(SCC(=O)c2c(N)n(C)c(=O)n(C)c2=O)n1-c1ccc(Cl)cc1)N(C)C (centres undefined) | -7.77% |  | 1.46 µM [rising, partial curve, poor fit]
49 | Cc1nnc(SCC(=O)c2cc(C)n(C3CC3)c2C)s1 | -9.43% |  | 6.51 µM [falling, single point]
50 | O=C1CC(N2CCOCC2)C(=O)N1c1cc(Cl)cc(Cl)c1 (centres undefined) | 0.78% | 0.92 µM [falling, full curve, poor fit] | 
51 | N#Cc1cccc(C(c2nnnn2Cc2ccccc2)N2CCCC2)c1 (centres undefined) | -1.62% |  | 
52 | CC(C)(C)OC(=O)N1CCC(NC(=O)c2[nH]cnc2C(=O)Nc2ccc(Cl)cc2)CC1 | -21% |  | 0.00461 µM [rising, full curve, poor fit]
53 | O=C(Cn1c(=O)c2cccn2c2cccnc21)NCCCN1CCN(c2ccc(F)cc2)CC1 | -0.295% |  | 
54 | CC(C)OCCCn1c(=NC(=O)c2ccncc2)c(C#N)cc2c(=O)n3ccccc3nc21 | -17% |  | 0.651 µM [falling, full curve, poor fit]
55 | COc1ccc(NC(=S)NC2CCCCCC2)c(OC)c1 | -3.43% |  | 
56 | COc1ccc(S(=O)(=O)Nc2ccccc2C(=O)OC2CCCN(C)C2)cc1OC (centres undefined) | 35.7% | 2.59 µM [rising, partial curve] | 7.31 µM [rising, partial curve]
57 | COc1ccc(/C=C/C(=O)NC2CCN(Cc3ccccc3)CC2)cc1OC | -0.435% |  | 29.1 µM [rising, single point]
58 | COc1ccc(Nc2nc3ccc(OC)cc3s2)cc1 | 40.5% | 1.46 µM [rising, partial curve] | 0.00461 µM [rising, full curve, poor fit]
59 | COc1cc(/C=N/NC(=O)CC2(C)OCCCO2)ccc1OCc1ccc(Cl)cc1Cl | 6.06% |  | 0.00366 µM [rising, full curve, poor fit]
60 | C/C(=N\NC(=O)c1ccc(OC2CCCC2)cc1)c1ccc(O)cc1 | 15.9% |  | 6.51 µM [falling, single point]
61 | Cc1ccc(/C=C/C(=O)OCC(=O)NC(=O)NCc2ccccc2)cc1 | -33.8% | 29.1 µM [falling, single point] | 0.651 µM [falling, full curve]
62 | Cn1cccc1Cc1nnc(SCC(=O)NCCc2ccccc2)n1C | -16.7% |  | 18.4 µM [falling, single point]
63 | O=C(C1CCCN(S(=O)(=O)c2cccc3nonc23)C1)N1CCC(Cc2ccccc2)CC1 (centres undefined) | 4.72% |  | 20.6 µM [falling, partial curve]
64 | Cc1nc(-c2ccc(F)cc2)c(CC(=O)N2CCN(S(=O)(=O)c3ccc(F)cc3)CC2)s1 | -12.4% |  | 29.1 µM [rising, single point]
